Measurements: paper PMC7696940, “Effects of Rationally Designed Physico-Chemical Variants of the Peptide PuroA on Biocidal Activity towards Bacterial and Mammalian Cells” (International Journal of Molecular Sciences, 2020)
Where no end group is shown, it is not given here.

The molecules below were run on HeLa cells. Details: ratio of IC50 NIH-3T3 to IC50 HeLa; bounds calculated with 250 μg/mL.
Assay type: cell-based, human
Description: Cytotoxicity to human cervical carcinoma HeLa cells and mouse fibroblastic NIH-3T3 cells was determined using the MTT assay as per Scudiero et al. with minor modifications. The cells were maintained in Dulbecco’s Modified Eagle Medium (DMEM) with 10% foetal bovine serum (FBS) and 1% penicillin G in a humidified incubator (Heraeus Hera Cell incubator) at 37 °C with 5% CO2. They were seeded in 96-well microtiter plates at 1 × 10^4 cells/well and allowed to adhere for 24 h in the incubator. The medium was removed, and adherent cells were washed with PBS. Fresh media containing serially diluted peptides in PBS (final concentrations 4 to 250 µg/mL) were added and the cells incubated for 24 h. Cells without peptides were used as negative controls. Following incubations, the medium was removed, and adherent cells were washed with PBS. 150 µL of MTT (diluted to 0.33 mg/mL in DMEM) and the plates incubated for 3 h. The precipitated formazan was dissolved in 100 µL of DMSO and its absorbance measured at 570 nm. Cell viability was determined as: (OD570 nm peptide treated cells/(OD570 nm untreated cells) × 100. Positive cytotoxicity was defined as peptide concentration that causes 50% growth inhibition in a cell line (IC50). All tests were carried out in triplicate.

Molecule	Therapeutic Index (TI)
CC(C)[C@H](NC(=O)[C@@H]1CCCN1C(=O)[C@@H](N)Cc1ccccc1)C(=O)N[C@H](C(=O)N[C@@H](Cc1c[nH]c2ccccc12)C(=O)N[C@@H](CCCNC(=N)N)C(=O)N[C@@H](Cc1c[nH]c2ccccc12)C(=O)N[C@@H](Cc1c[nH]c2ccccc12)C(=O)N[C@@H](CCCCN)C(=O)N[C@@H](Cc1c[nH]c2ccccc12)C(=O)N[C@@H](Cc1c[nH]c2ccccc12)C(=O)N[C@@H](CCCCN)C(=O)NCC(N)=O)[C@@H](C)O [PuroA]	<1
RKRWWRWWKWWKR-NH2 [Peptide P1]	7.8
RRRRWRWWRWWRR-NH2 [Peptide R8]	>1
RWWKWW-NH2 [Peptide R6]	<1
RWWKWWK-NH2 [Peptide R7]	<1
